We go through 11 sequences from PMC11063404, “Classical and novel properties of Holliday junction resolvase SynRuvC from Synechocystis sp. PCC6803”.

Data set [1] has as its target T1, SynRuvC (FL, WT) (Synechocystis sp. PCC6803) (UniProt Q55506).
T1 sequence (looked up): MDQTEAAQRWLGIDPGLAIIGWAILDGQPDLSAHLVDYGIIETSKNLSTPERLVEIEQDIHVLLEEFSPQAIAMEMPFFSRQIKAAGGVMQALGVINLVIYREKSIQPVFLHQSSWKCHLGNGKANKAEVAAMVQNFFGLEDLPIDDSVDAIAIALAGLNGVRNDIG
Briefly: EMSA. The note with it: EMSA: 50 nM 5'-FAM DNA, 0-2000 nM protein, 20 mM HEPES pH 7.5, 50 mM NaCl, 1 mM DTT, 10% DMSO, 1% glycerol, no metal listed, 37 C 60 min, 5% native PAGE in 1x TAE, recombinant protein, residues 1-167, protein details: His-SUMO N-terminal, removed. (In general: A gel shift assay detects complexes by their altered migration in electrophoresis.)

In data set [2] the target is T2, SynRuvC 1-144 (Synechocystis sp. PCC6803) (UniProt Q55506).
T2 sequence (looked up): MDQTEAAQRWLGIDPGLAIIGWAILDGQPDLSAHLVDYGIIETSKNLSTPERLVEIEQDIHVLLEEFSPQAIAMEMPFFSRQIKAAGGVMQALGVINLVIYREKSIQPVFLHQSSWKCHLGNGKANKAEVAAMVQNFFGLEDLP
Briefly: EMSA. The note with it: complex migration slightly altered, deletion said to hinder substrate binding; EMSA: 50 nM 5'-FAM DNA, 0-2000 nM protein, 20 mM HEPES pH 7.5, 50 mM NaCl, 1 mM DTT, 10% DMSO, 1% glycerol, no metal listed, 37 C 60 min; 5% native PAGE in 1x TAE; recombinant protein; residues 1-144; protein details: His-SUMO N-terminal, removed (purified as WT); label: 5'-FAM on one strand; folded or branched DNA.

[3] abbreviates: label: 5'-FAM on one strand, folded or branched DNA.

For part of these data: Weaker means in comparison with the reference protein, sequence or condition of that experiment. Tags and fusion partners may be left off the protein sequences shown. For part of these data: Construct, isoform or probe ends are uncertain for at least one entry. For part of these data: At least one verdict rests on a figure or table, not on a statement of the authors.

As to “GCAATTCGATCGTTGACATCTCGCGTGCTCGGTCAATCGGCAGATGCGGAGTGAAGTTCCAACGTTCGGC (double strand) [duplex]”, in data set [1] (double strands less preferred than 5'-single strands, label: 5'-FAM on one strand), the binding result is “binds”. In the case of “GCAATTCGATCGTTGACATCTCGCGTGCTCGGTCAATCGGCAGATGCGGAGTGAAGTTCCAACGTTCGGC / CCTGCAGGATGGTAGGACGGCCTCGCAATCCCGATTGACCGAGCACGCGAGATGTCAACGATCGAATTGC / GCCGAACGTTGGAACTTCACTCCGCATCTGCCGATTGACCGAGTGGCGTGTTTCTGGTGGTTCCTAGGTC / GACCTAGGAACCACCAGAAACACGCCACTCGGTCAATCGGGATTGCGAGGCCGTCCTACCATCCTGCAGG [4Jh]”, the binding result is reported as “binds more weakly” in data set [2] and “binds” in data set [1] (setting [3]).

For the sequence “GCAATTCGATCGTTGACATCTCGCGTGCTCGGTCAATCGGCAGATGCGGAGTGAAGTTCCAACGTTCGGC / CGGCTTGCAACCTTGAAGTGAGGCGTAGACGGCTATGACCGAGCACGCGAGATGTCAACGATCGAATTGC [splayed arms]”, the binding result in data set [1] (setting [3]) was “binds”. Same read-out and setting: to “GCAATTCGATCGTTGACATCTCGCGTGCTCGGTCAATCGGCAGATGCGGAGTGAAGTTCCAACGTTCGGC / GCCGAACGTTGGAACTTCACTCCGCATCTCGGTTGAATGGCAGCACGCGAGATGTCAACGATCGAATTGC [bubble]” belongs “binds”; to “GCAATTCGATCGTTGACATCTCGCGTGCTCGGTCAATCGGCAGATGCGGAGTGAAGTTCCAACGTTCGGC / GCCGAACGTTGGAACTTCACTCCGCATCTGCCGAT / CGGCTTGCAACCTTGAAGTGAGGCGTAGACGGCTATGACCGAGCACGCGAGATGTCAACGATCGAATTGC [5'-flap]”, “binds”. For the sequence “GCAATTCGATCGTTGACATCTCGCGTGCTCGGTCAATCGGCAGATGCGGAGTGAAGTTCCAACGTTCGGC / GCCGAACGTTGGAACTTCACTCCGCATCTGCCGAT / GACCGAGCACGCGAGATGTCAACGATCGAATTGC [gapped duplex]”, the binding result in data set [1] (label: 5'-FAM on one strand) is recorded as “binds”. Still for that read-out and setting: to “GCAATTCGATCGTTGACATCTCGCGTGCTCGGTCAATCGGCAGATGCGGAGTGAAGTTCCAACGTTCGGC / GCCGAACGTTGGAACTTCACTCCGCATCTGCCGAT / TGACCGAGCACGCGAGATGTCAACGATCGAATTGC [nicked duplex]” belongs “binds”. On to “GCAATTCGATCGTTGACATCTCGCGTGCTCGGTCAATCGGCAGATGCGGAGTGAAGTTCCAACGTTCGGC / GCCGAACGTTGGAACTTCACTCCGCATCTGCCGAT [5'-overhang (35 nt)]”, for which, in data set [1] (substrates with 5'-single strands preferred over double strands, label: 5'-FAM on one strand), the binding result was “binds”. On to “GCAATTCGATCGTTGACATCTCGCGTGCTCGGTCAATCGGCAGATGCGGAGTGAAGTTCCAACGTTCGGC / TGACCGAGCACGCGAGATGTCAACGATCGAATTGC / GCCGAACGTTGGAACTTCACTCCGCATCTGCCGATACTGGCTCGTGCGCTCTACAGTTGCTAGCTTAACG [3'-flap]”, for which the binding result in data set [1] (setting [3]) is “binds”.

With “GCAATTCGATCGTTGACATCTCGCGTGCTCGGTCAATCGGCAGATGCGGAGTGAAGTTCCAACGTTCGGC / TGACCGAGCACGCGAGATGTCAACGATCGAATTGC [3'-overhang]”, the binding result in data set [1] (label: 5'-FAM on one strand) is recorded as “binds”. Consider “GCAATTCGATCGTTGACATCTCGCGTGCTCGGTCAATCGGCAGATGCGGAGTGAAGTTCCAACGTTCGGC [ssDNA J2]”, for which, in data set [1] (label: 5'-FAM, single-stranded DNA), the binding result was “binds”.
